Results from PMC5862942.

Protein sequences, listed by entry. Tags and fused reporters are not part of them. Lines headed by an entry give the natural chain unless they say otherwise; changes in a name come on top.
UniProt Q8N371: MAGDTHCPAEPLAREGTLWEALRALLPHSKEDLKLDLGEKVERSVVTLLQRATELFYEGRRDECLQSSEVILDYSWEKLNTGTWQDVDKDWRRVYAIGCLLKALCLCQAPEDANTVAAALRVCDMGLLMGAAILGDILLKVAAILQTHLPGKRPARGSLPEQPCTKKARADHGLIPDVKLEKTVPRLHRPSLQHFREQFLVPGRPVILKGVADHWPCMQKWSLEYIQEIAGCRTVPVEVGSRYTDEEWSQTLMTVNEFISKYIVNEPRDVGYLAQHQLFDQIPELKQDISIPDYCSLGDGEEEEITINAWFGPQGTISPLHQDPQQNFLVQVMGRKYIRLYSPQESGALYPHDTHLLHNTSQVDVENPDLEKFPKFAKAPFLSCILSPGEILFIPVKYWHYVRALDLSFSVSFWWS

How the values were obtained:
[1] = target: N-terminally truncated JMJD5 (Jumonji-C domain-containing protein 5), wild type (human) (UniProt Q8N371); assay: crystal structure; co-crystallisation without cross-link: 0.8 mM His6-JMJD5, 1.5 mM MnCl2, 2.5 mM NOG, 10 mM substrate peptide; vapour diffusion at 22 °C, 0.1 M Bis-Tris pH 5.8-6.5, PEG 3350; both purified
[2] = target: JMJD5(N308C), N-terminally truncated (human) (UniProt Q8N371); assay: crystal structure; site-specific disulphide enzyme-substrate cross-linked complexes (JMJD5 Cys variant with Cys-containing peptide), with Mn and NOG or 2OG; vapour diffusion at 22 °C, 0.1 M Bis-Tris pH 5.8-6.5, PEG 3350; both purified
[3] = target: JMJD5(W414C), N-terminally truncated (human) (UniProt Q8N371); assay: as above

VPRRLGPKRASRIRKL (C-terminal amide) [40S ribosomal protein S6 (RPS6) peptide, residues 129-144]
binding [1]: binds

CARAY (C-terminal amide) [Regulator of chromosome condensation domain-containing protein 1 (RCCD1) peptide, residues 139-143]
binding [2]: binds | binding [3]: binds

Results are given in words; binding and its absence hold for the method and conditions named. A result given as binding can be weak or reduced; the word gives no strength.
